PubChem BioAssay AID1259326 | Drosophila RNAi Screening Center, 2017

- Assay: 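Autophagy genes whose loss alters cell survival in toxic zinc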
- System: Drosophila S2R+ cells
- Knock-down reagent: long dsRNA against Drosophila genes
- Timing: about 5 days (4 days of RNAi, then 1 day of zinc)
- Challenge: zinc chloride added to 15 mM final for one day
- Detection: 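Luminescent ATP signal marks surviving cells, read after RNAi for 4 days then 15 mM zinc chloride for 1 day; z-scores are replicate means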
- Reading the numbers: averaged z-score: higher = more ATP than other wells, i.e. more surviving cells, after zinc; ATP luminescence: higher = more ATP, i.e. more surviving cells
- Hit rule: 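Called active when the averaged z-score lies outside -1.5 to 1.5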
The deposit covers 573 reagents; this is a random part of them. 39 of them (6.8%) count as active. 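All actives have raised ATP, meaning more surviving cells; in these data active calls sit at averaged z-scores near 1.5 or above.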 Raw values vary from plate to plate and are shown uncorrected. Reagents against one gene are numbered here. Not stated in the record: the amount of reagent.

Pfas (Phosphoribosylformylglycinamidine synthase) #1 gave averaged z-score -0.459; ATP luminescence, replicate 1 = 70253; ATP luminescence, replicate 2 = 90510; inactive. Knock-down of Pfas (Phosphoribosylformylglycinamidine synthase) #2 came out at: averaged z-score -0.157; ATP luminescence, replicate 1 = 64165; ATP luminescence, replicate 2 = 75261; inactive. CG8475 #1 showed averaged z-score 0.437; ATP luminescence, replicate 1 = 86736; ATP luminescence, replicate 2 = 94834; inactive. With knock-down of CG8475 #2 the results were averaged z-score -0.16; ATP luminescence, replicate 1 = 65091; ATP luminescence, replicate 2 = 77988; inactive. Pde11 (Phosphodiesterase 11) #1 scored averaged z-score 0.17; ATP luminescence, replicate 1 = 1.00e5; ATP luminescence, replicate 2 = 83632; inactive. After knock-down of Pde11 (Phosphodiesterase 11) #2 the results were averaged z-score -0.03; ATP luminescence, replicate 1 = 81367; ATP luminescence, replicate 2 = 75724; inactive.

With knock-down of Pde11 (Phosphodiesterase 11) #3, the record shows averaged z-score 0.464; ATP luminescence, replicate 1 = 80648; ATP luminescence, replicate 2 = 80664; inactive. For ThrRS (Threonyl-tRNA synthetase) #1, the entry reads averaged z-score 0.342; ATP luminescence, replicate 1 = 91165; ATP luminescence, replicate 2 = 1.05e5; inactive. With knock-down of ThrRS (Threonyl-tRNA synthetase) #2, the screen gave averaged z-score 0.0397; ATP luminescence, replicate 1 = 72020; ATP luminescence, replicate 2 = 78177; inactive. For Eip93F (Ecdysone-induced protein 93F) #1, the values are averaged z-score -0.371; ATP luminescence, replicate 1 = 79498; ATP luminescence, replicate 2 = 65897; inactive. For Eip93F (Ecdysone-induced protein 93F) #2, the values are averaged z-score -0.439; ATP luminescence, replicate 1 = 90459; ATP luminescence, replicate 2 = 55009; inactive. With knock-down of Rab2 #1, the record shows averaged z-score -0.0397; ATP luminescence, replicate 1 = 96532; ATP luminescence, replicate 2 = 71162; inactive.

After knock-down of Rab2 #2, the screen gave averaged z-score 0.189; ATP luminescence, replicate 1 = 74506; ATP luminescence, replicate 2 = 74455; inactive. Rab2 #3 scored averaged z-score -0.139; ATP luminescence, replicate 1 = 74792; ATP luminescence, replicate 2 = 72242; inactive. CG17698 #1 showed averaged z-score 0.0793; ATP luminescence, replicate 1 = 93210; ATP luminescence, replicate 2 = 76359; inactive. CG17698 #2 scored averaged z-score -0.189; ATP luminescence, replicate 1 = 81179; ATP luminescence, replicate 2 = 68778; inactive. After knock-down of CG17698 #3, the screen gave averaged z-score -0.331; ATP luminescence, replicate 1 = 64525; ATP luminescence, replicate 2 = 72431; inactive.

In a second layout: entries from further up
{"gene": "ThrRS (Threonyl-tRNA synthetase)", "reagent": 2, "averaged z-score": 0.0397, "ATP luminescence, replicate 1": 72020, "ATP luminescence, replicate 2": 78177, "activity call": "inactive"}
{"gene": "Eip93F (Ecdysone-induced protein 93F)", "reagent": 1, "averaged z-score": -0.371, "ATP luminescence, replicate 1": 79498, "ATP luminescence, replicate 2": 65897, "activity call": "inactive"}
{"gene": "Eip93F (Ecdysone-induced protein 93F)", "reagent": 2, "averaged z-score": -0.439, "ATP luminescence, replicate 1": 90459, "ATP luminescence, replicate 2": 55009, "activity call": "inactive"}
